Reference: the supplement of paper PMC10849652
This is one part of the list.

Protein sequences, listed by entry. Tags and fused reporters are not part of them. Lines headed by an entry give the natural chain unless they say otherwise; changes in a name come on top.
UniProt Q8NCR0: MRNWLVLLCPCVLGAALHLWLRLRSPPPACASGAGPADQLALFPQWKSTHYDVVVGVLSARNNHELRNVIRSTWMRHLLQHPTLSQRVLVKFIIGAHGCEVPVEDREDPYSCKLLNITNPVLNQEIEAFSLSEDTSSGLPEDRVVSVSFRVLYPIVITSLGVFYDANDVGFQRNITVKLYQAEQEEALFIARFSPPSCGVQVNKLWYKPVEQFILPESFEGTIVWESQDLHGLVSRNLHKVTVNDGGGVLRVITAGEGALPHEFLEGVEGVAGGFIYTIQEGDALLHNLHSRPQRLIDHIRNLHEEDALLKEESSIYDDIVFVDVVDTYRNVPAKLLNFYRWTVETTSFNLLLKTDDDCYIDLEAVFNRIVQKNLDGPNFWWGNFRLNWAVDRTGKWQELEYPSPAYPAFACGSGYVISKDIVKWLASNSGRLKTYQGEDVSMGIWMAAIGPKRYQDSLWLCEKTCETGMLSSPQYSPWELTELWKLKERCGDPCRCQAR
UniProt Q76L83: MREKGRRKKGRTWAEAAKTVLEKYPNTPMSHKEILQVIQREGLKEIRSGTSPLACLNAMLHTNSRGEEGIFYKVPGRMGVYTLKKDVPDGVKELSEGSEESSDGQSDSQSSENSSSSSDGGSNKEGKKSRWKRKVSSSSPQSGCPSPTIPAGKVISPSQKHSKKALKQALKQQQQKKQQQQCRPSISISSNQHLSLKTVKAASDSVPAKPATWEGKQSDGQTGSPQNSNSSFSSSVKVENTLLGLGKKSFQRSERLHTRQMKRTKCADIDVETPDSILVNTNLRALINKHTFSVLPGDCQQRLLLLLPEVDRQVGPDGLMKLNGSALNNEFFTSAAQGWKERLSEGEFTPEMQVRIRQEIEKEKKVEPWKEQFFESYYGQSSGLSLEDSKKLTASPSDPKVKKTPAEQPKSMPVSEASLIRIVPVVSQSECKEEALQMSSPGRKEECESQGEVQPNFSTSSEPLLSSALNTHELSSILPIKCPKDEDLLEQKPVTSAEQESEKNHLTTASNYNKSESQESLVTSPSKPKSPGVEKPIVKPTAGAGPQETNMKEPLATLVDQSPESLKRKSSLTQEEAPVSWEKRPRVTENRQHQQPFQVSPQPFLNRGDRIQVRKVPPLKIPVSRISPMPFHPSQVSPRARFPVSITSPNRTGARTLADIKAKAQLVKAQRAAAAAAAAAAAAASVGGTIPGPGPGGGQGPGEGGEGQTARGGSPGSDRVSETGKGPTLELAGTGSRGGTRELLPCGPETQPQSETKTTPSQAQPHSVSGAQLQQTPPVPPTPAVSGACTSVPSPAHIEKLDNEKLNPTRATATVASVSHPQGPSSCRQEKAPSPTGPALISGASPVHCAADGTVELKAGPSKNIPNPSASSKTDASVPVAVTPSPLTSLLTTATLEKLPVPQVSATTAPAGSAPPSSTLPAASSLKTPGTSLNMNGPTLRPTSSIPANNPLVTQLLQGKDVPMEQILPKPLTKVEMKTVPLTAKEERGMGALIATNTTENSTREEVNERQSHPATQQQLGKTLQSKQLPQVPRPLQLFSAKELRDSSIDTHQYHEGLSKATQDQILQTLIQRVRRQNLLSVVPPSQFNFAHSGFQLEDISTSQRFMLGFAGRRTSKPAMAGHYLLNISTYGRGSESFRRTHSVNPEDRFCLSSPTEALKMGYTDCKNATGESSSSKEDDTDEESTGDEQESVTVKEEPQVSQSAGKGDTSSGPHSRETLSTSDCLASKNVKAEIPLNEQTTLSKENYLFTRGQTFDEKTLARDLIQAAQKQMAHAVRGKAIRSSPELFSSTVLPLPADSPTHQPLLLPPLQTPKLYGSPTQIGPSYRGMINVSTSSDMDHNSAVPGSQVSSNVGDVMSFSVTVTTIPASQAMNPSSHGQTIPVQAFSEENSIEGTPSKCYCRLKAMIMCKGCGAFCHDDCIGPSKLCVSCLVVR
UniProt P18859: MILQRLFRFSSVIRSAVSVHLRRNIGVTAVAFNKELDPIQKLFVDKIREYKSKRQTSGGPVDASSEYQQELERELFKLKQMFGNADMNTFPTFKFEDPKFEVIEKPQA
UniProt Q9NWL6: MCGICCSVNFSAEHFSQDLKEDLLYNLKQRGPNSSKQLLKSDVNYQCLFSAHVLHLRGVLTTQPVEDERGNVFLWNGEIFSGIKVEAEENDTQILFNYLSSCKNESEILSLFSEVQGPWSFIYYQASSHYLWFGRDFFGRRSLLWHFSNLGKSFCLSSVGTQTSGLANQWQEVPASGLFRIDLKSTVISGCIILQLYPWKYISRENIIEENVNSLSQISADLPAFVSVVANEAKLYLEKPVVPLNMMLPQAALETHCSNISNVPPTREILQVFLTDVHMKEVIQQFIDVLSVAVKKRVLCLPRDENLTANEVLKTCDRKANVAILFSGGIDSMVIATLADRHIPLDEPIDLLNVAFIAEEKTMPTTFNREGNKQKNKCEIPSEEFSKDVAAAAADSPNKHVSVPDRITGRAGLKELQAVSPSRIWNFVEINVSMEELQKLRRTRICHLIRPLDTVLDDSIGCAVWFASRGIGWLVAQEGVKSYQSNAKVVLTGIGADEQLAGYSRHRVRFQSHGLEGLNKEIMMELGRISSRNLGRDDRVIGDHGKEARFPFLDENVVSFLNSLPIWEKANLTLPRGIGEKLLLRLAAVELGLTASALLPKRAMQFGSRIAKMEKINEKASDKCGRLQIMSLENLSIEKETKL
UniProt O95260: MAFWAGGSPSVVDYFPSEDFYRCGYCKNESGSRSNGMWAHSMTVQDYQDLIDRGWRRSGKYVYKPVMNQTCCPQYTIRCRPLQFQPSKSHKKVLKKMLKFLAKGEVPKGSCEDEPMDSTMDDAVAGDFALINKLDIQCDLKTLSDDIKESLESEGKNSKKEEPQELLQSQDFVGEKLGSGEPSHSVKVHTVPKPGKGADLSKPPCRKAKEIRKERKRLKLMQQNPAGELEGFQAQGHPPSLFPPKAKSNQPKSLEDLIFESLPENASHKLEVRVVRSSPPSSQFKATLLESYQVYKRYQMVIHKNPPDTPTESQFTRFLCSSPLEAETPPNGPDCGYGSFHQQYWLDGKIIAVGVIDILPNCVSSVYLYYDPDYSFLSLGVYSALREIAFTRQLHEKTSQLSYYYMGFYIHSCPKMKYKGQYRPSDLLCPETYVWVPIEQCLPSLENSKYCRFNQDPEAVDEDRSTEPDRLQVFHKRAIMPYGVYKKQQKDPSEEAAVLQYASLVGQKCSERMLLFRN

Tests used:
Assay in all cases: log2 fold change, soluble protein after heating vs DMSO (PISA); higher = thermal stabilisation; K562 lysate, 10 uM; active = over 0.2 and 3.5 SD of the protein, either way, in both replicates (recomputed)
[1] = compound: CC1=C2C(=CC=C1)N=C(N(C2=O)C3=CC=CC=C3C)CN4C=NC5=C(N=CN=C54)N
Summary of the method: (§1)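 To prepare the extract, K562 pellets were dounce-homogenised in PBS pH 7.4 with 1 mM MgCl2, giving crude material at 1 mg/mL protein. This was treated with 10 μM compound for 30 min, then heated in aliquots for 3 min over 48°C-58°C before pooling and addition of NP-40 to 0.5% at 4°C. Centrifugation at 21,000xg for 90 min left soluble protein in the supernatant, which TMTpro 16plex LC-MS/MS quantified with equalised channel sums. Results are log-two fold changes in thermal stability compared with solvent controls, from duplicates.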

[2] = compound: Cc1sc2c(c1C)C(c1ccc(Cl)cc1)=N[C@@H](CC(=O)OC(C)(C)C)c1nnc(C)n1-2
Summary of the method: as §1

[3] = compound: C1=CC=C(C=C1)[C@H](COC2=CC3=C(C=C2)NC(=O)N3)NC(=O)C4=CC=CN(C4=O)CC5=CC(=C(C=C5)F)F
Summary of the method: as §1

[4] = compound: CC1=C(SC2=C1C(=N[C@H](C3=NN=C(N32)C)CC(=O)N)C4=CC=C(C=C4)Cl)C
Summary of the method: as §1

[5] = compound: c1ccc([C@@H]2C[C@H]2NC2CCNCC2)cc1
Summary of the method: as §1

Target | log2 fold change [1] | log2 fold change [2] | log2 fold change [3] | log2 fold change [4] | log2 fold change [5]
ATP5F1B (UniProt F8W0P7) | inactive: -0.155 | inactive: 0.074 | – | – | –
ATP1B1 (UniProt P05026) | – | inactive: -0.008 | inactive: -0.003 | inactive: 0.016 | inactive: -0.059
B3GALNT2 (UniProt Q8NCR0) | – | inactive: 0.154 | – | – | –
ATG4D (UniProt Q86TL0) | – | inactive: 0.041 | inactive: -0.011 | inactive: 0.057 | –
ASXL2 (UniProt Q76L83) | – | inactive: -0.187 | inactive: 0.017 | inactive: 0.016 | inactive: 0.171
ATP5PF isoform 2 (UniProt P18859) | inactive: -0.05 | inactive: 0.075 | inactive: 0.085 | inactive: -0.086 | inactive: 0.228
ASNSD1 (UniProt Q9NWL6) | – | – | inactive: 0.122 | inactive: -0.035 | inactive: -0.119
ATXN2 (UniProt F8WB06) | – | inactive: -0.014 | – | – | –
ATE1 (UniProt O95260) | – | – | inactive: 0 | inactive: 0.07 | inactive: -0.125
